Experimental data: PubChem BioAssay AID1259254 (NCATS, 2017)

- Aim: 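Genome-wide screen for genes that prevent DNA re-replication in cancer cells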 (primary screen)
- Cell system: human HCT116 colorectal cancer cells
- Reagent: single siRNA against human genes
- Timing: 3 days
- Read-out: 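Imaged Hoechst DNA stain sorts each cell into a cycle phase by DNA amount; per plate, G2 fraction set to 0% for non-targeting and 100% for GMNN siRNA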
- Scale: G2 robust z-score: higher = more G2 cells, more excess DNA replication
- Active means: 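Active siRNAs have a G2 robust z of 5 or more median absolute deviations over the median, which in these data means about 38% or higher of GMNN control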
The deposit covers about 59,000 reagents; below is a part drawn at random. In the full data, about 1,550 (2.6%) are marked active. 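G2 share is only a proxy for re-replication; each gene was hit by three separate siRNAs, and active genes were retested.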 A number with no mark means an inactive call. The numbers tell different reagents against one gene apart. Not all columns of the deposit are shown. Not given: the amount of reagent.

CD28 (GeneID 940) #1 — G2 robust z-score = 0.162
CD28 (GeneID 940) #2 — G2 robust z-score = 0.395
CD28 (GeneID 940) #3 — G2 robust z-score = 0.345
DPPA5 (GeneID 340168) #1 — G2 robust z-score = 0.0893
DPPA5 (GeneID 340168) #2 — G2 robust z-score = -0.33
DPPA5 (GeneID 340168) #3 — G2 robust z-score = -0.778
ZBTB18 (GeneID 10472) #1 — G2 robust z-score = 2.29
ZBTB18 (GeneID 10472) #2 — G2 robust z-score = -1.51
ZBTB18 (GeneID 10472) #3 — G2 robust z-score = -0.783
SPCS3 (GeneID 60559) #1 — G2 robust z-score = 0.446
SPCS3 (GeneID 60559) #2 — G2 robust z-score = -0.53
SPCS3 (GeneID 60559) #3 — G2 robust z-score = -0.329
PPP3CB (GeneID 5532) #1 — G2 robust z-score = -0.612
PPP3CB (GeneID 5532) #2 — G2 robust z-score = 0.00615
PPP3CB (GeneID 5532) #3 — G2 robust z-score = -0.186
KLHL22 (GeneID 84861) #1 — G2 robust z-score = -0.65
KLHL22 (GeneID 84861) #2 — G2 robust z-score = 1.13
KLHL22 (GeneID 84861) #3 — G2 robust z-score = 0.969
CRIP1 (GeneID 1396) #1 — G2 robust z-score = 4.61
CRIP1 (GeneID 1396) #2 — G2 robust z-score = 0.971
CRIP1 (GeneID 1396) #3 — G2 robust z-score = 3.07
NUDT21 (GeneID 11051) #1 — G2 robust z-score = -0.589
NUDT21 (GeneID 11051) #2 — G2 robust z-score = 0.877
NUDT21 (GeneID 11051) #3 — G2 robust z-score = 0.219
JMJD4 (GeneID 65094) #1 — G2 robust z-score = 1.58
JMJD4 (GeneID 65094) #2 — G2 robust z-score = -0.771
JMJD4 (GeneID 65094) #3 — G2 robust z-score = -0.788
RPS27 (GeneID 6232) #1 — G2 robust z-score = 2.89
RPS27 (GeneID 6232) #2 — G2 robust z-score = 2.35
RPS27 (GeneID 6232) #3 — G2 robust z-score = 3.47

Part of the list above, reformatted.
{"Target gene": "JMJD4 (GeneID 65094)", "reagent": 1, "G2 robust z-score": 1.58}
{"Target gene": "JMJD4 (GeneID 65094)", "reagent": 2, "G2 robust z-score": -0.771}
{"Target gene": "JMJD4 (GeneID 65094)", "reagent": 3, "G2 robust z-score": -0.788}
{"Target gene": "RPS27 (GeneID 6232)", "reagent": 1, "G2 robust z-score": 2.89}
